{"source": "patent US20110038889A1", "about": "“METHODS AND COMPOSITIONS FOR ALTERING CELL FUNCTION” (ALLTECH, INC., priority 2005, published 2011)", "type_in_all_cases": "in vivo", "key": {"Neurogenin 3 (Neurog3)": {"tested_on": "Neurogenin 3 (Neurog3)", "assay": "Microarray gene expression, mouse intestine: Neurog3", "conditions": "Example 6 (intestine); diet 1 ppm Se, 100 days; vs selenium-deficient diet", "text": "(§1) Animal Care. Male C57BL/6J mice were housed singly and started on the experimental diets described below immediately after weaning (21 days of age). The mice were maintained in the Shared Aging Rodent Facility at the William S. Middleton Memorial Veterans Administration Medical Center (Madison, Wis.). Temperature and humidity were maintained at constant levels. Room light was controlled to provide 12-hr cycles of light and dark.\n(§2) Experimental diets were created by Harlan Teklad (Madison, Wis.). Selenium content of the diets was determined by Covance Inc. (Madison, Wis.). Five (5) animals were included in each of the following treatment groups: a diet deficient in selenium (SD); a diet supplemented with selenomethionine (SM, obtained from Sigma,St. Louis, Mo.) such that the final selenium content of the diet was one (1) part per million; a diet supplemented with sodium selenite (SS, Sigma) such that the final concentration of selenium in this diet was one (1) part per million; or a diet supplemented with the yeast selenium SEL-PLEX (SP, Alltech, Lexington, Ky.), such that the final concentration of selenium in this diet was one (1) part per million. SEL-PLEX. […]\n(§3) Tissue sample preparation and microarray analysis. […] For intestinal expression studies, the intestine was flushed twice with saline solution and small intestine was measured and divided in three equal segments. […]"}, "Glyoxalase 1 (Glo1)": {"tested_on": "Glyoxalase 1 (Glo1)", "assay": "Microarray gene expression, mouse intestine: Glo1", "conditions": "Example 4 (intestine); diet 1 ppm Se, 100 days; vs selenium-deficient diet; p<0.01 for SEL-PLEX", "text": "as §1, §2, §3"}, "[1]": {"tested_on": "LIM homeobox protein 8 gene (Lhx8)", "assay": "Microarray gene expression, mouse intestine: Lhx8", "conditions": "Example 5 (intestine); diet 1 ppm Se, 100 days; vs Se-deficient subjects; p<0.01 for SEL-PLEX", "text": "as §1, §2, §3"}, "CORS-26": {"tested_on": "CORS-26", "assay": "Microarray gene expression, mouse cerebral cortex: CORS-26", "conditions": "Example 10 (cerebral cortex); diet 1 ppm Se, 100 days; vs selenium-deficient diet", "text": "as §1, §2, §3"}, "selenoprotein N1 (Sepn1)": {"tested_on": "selenoprotein N1 (Sepn1)", "assay": "Microarray gene expression, mouse intestine: Sepn1", "conditions": "diet 1 ppm Se, 100 days, vs selenium-deficient diet, p<0.02 for SEL-PLEX", "text": "as §1, §2, §3"}, "[2]": {"tested_on": "transforming growth factor beta 2 (TGF-β2)", "assay": "Microarray gene expression, mouse intestine: TGF-β2", "conditions": "Example 5 (intestine); diet 1 ppm Se, 100 days; compared to controls", "text": "as §1, §2, §3"}, "[3]": {"tested_on": "type II iodothyronine deiodinase (Dio2)", "assay": "Microarray gene expression, mouse intestine: Dio2", "conditions": "Example 4 (intestine); diet 1 ppm Se, 100 days; vs selenium-deficient diet", "text": "as §1, §2, §3"}, "Prohibitin (Phb)": {"tested_on": "Prohibitin (Phb)", "assay": "Microarray gene expression, mouse intestine: Phb", "conditions": "Example 4 (intestine); diet 1 ppm Se, 100 days; vs selenium-deficient diet; p<0.05"}, "[4]": {"tested_on": "sprouty homolog 2 gene (Spry2)", "assay": "Microarray gene expression, mouse intestine: Spry2", "conditions": "Example 7 (intestine); diet 1 ppm Se, 100 days; relative to Se-deficient controls", "text": "as §1, §2, §3"}}, "note": "At least one structure is not confirmed: it was looked up by name or label, or the drawing left a doubt."}
{"compound": "O=[Se](O)O", "note": "[Sod-sel, sodium selenite]", "values": [{"measurement": "Fold upregulation of Neurog3 expression", "setting": "Neurogenin 3 (Neurog3)", "result": "no significant alteration"}, {"measurement": "Fold reduction of Glo1 expression", "setting": "Glyoxalase 1 (Glo1)", "result": "not significantly affected"}, {"measurement": "Fold upregulation of Lhx8 expression", "setting": "[1]", "result": "not significantly different"}, {"measurement": "Fold reduction in expression of CORS-26", "setting": "CORS-26", "result": "no alteration"}, {"measurement": "Fold increase of selenoprotein N1 (Sepn1) gene expression", "setting": "selenoprotein N1 (Sepn1)", "result": "not significantly affected"}, {"measurement": "Fold upregulation of TGF-β2 expression", "setting": "[2]", "result": "not altered"}, {"measurement": "Fold down-regulation of Dio2 expression", "setting": "[3]", "result": "no ability to alter"}, {"measurement": "Fold downregulation of Prohibitin (Phb) expression", "setting": "Prohibitin (Phb)", "result": "did not significantly alter"}, {"measurement": "Fold reduction in Spry2 gene expression", "setting": "[4]", "result": "no alteration"}]}
